According to the supplement of paper PMC10735217:
“And” between values parts separate entries of the source, which are not always exact repeats. Equal entries are not always repeated. Structures can show the parent of a compound that is named as a salt. Some of the results follow. Repeats in this data set agree poorly, so a single value says little.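 The human kidney-derived cells carry a stably integrated construct of eight TEAD-binding elements driving luciferase, read by luminescence in a drug-repurposing library screen. A compound counts as a hit when its signal is more than five robust Z scores above the plate mean.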

Test system: HEK293A TEAD-LUC reporter
Assay: TEAD-luciferase reporter activity (YAP activation), robust Z score vs plate; higher = stronger YAP/TEAD activation
Details: 24 h

SMILES | TEAD-luciferase reporter activity (compound concentration: 200 nM) | TEAD-luciferase reporter activity (compound concentration: 2 uM) | TEAD-luciferase reporter activity (compound concentration: 10 uM)
CC(C)(C)c1cc(/C=C2\SC(N)=NC2=O)cc(C(C)(C)C)c1O | inactive: -1.47 | inactive: -1.34 | inactive: -0.642
O=C(NC1CCN(c2nc3ncccc3o2)CC1)c1ccccc1 | inactive: 0.572 |  | inactive: -0.00848
O=c1c2c([nH]c3ccccc13)C(c1ccc3c(c1)CCO3)N(c1ccccn1)C2 (stereo unspecified) | inactive: -1.31 and inactive: -1.5 | inactive: -0.486 and inactive: -0.711 | inactive: -1.58 and inactive: 1.86
CC(c1cccs1)N(C)CC1CCCCC1 (stereo unspecified) | inactive: -1.07 |  | inactive: 0.936
Fc1ccc2c(c1)OCc1ccccc1C2N1CCN(C/C=C/c2ccccc2)CC1 (stereo unspecified) | inactive: -0.54 | inactive: 0.0752 | inactive: 1.5
C1=Cc2cccc(OCC3CNCCO3)c2C1 (stereo unspecified) | inactive: -1.08 | inactive: -1.09 | inactive: 2.12
NC(=O)NS(=O)(=O)c1ccc(N)cc1 | inactive: 1.09 | inactive: -0.665 | inactive: -0.312
C/C(=C\C(=O)OCCCCCCCCC(=O)O)C[C@@H]1OC[C@H](C[C@@H]2O[C@H]2[C@@H](C)[C@H](C)O)[C@@H](O)[C@H]1O [Mupirocin] | active: 7.84 | inactive: -1.9 | inactive: 0.0893
CC(=O)N1CCCN(C(=O)c2cnc3cc(C)nn3c2)CC1 | inactive: -2.63 |  | inactive: 0.298
OC(CI)CI | inactive: -0.0835 | inactive: -0.644 | inactive: -0.732
O=C1CC[C@H](C(=O)N[C@@H]2C[C@H]2c2ccccc2)N1 | inactive: -1.37 | inactive: -0.275 | inactive: -1.13
CCN1CCC[C@H]1CNC(=O)c1cc(S(N)(=O)=O)ccc1OC | inactive: 0.102 |  | inactive: 1.22
CCN1CCC[C@H]1CNC(=O)c1cc(S(N)(=O)=O)ccc1OC [levosulpiride] |  | inactive: -1.03 | 
CC1(C)OC(c2ccc(S(N)(=O)=O)cc2)=C(c2cccc(F)c2)C1=O [Polmacoxib] | inactive: 0.206 | inactive: 0.503 | inactive: 0.782
CN(C)[C@@H]1C(O)=C(C(N)=O)C(=O)[C@@]2(O)C(O)=C3C(=O)c4c(O)ccc(Cl)c4[C@@](C)(O)C3C[C@@H]12 (stereo partly specified) [Chlortetracycline HCl] | inactive: -0.0898 | inactive: -0.0875 | inactive: 2.28
C[C@@H](NCCCc1cccc(C(F)(F)F)c1)c1cccc2ccccc12 [cinacalcet hydrochloride] | inactive: -1.82 | inactive: -0.602 | inactive: -3.61
CCOC(=O)CN1CCN(C(=O)/C=C/c2cc(OC)c(OC)c(OC)c2)CC1 [cinepazet] | inactive: -1.72 | inactive: 0.78 | inactive: 3.43
CCCCc1c(Cc2ccc(-c3ccccc3-c3nnn[nH]3)cc2)c(O)nc2ncnn12 | inactive: -0.738 | inactive: 1.48 | inactive: 0.314
CC1=C2N=C(C=C3N=C(C(C)=C4[C@@H](CCC(N)=O)[C@](C)(CC(N)=O)[C@](C)(C5N=C1[C@](C)(CCC(=O)NCC(C)OP(=O)([O-])OC1C(CO)OC(n6cnc7cc(C)c(C)cc76)C1O)[C@H]5CC(N)=O)[N]4[Co][OH])[C@@](C)(CC(N)=O)[C@@H]3CCC(N)=O)C(C)(C)[C@@H]2CCC(N)=O (stereo partly specified) | inactive: 0.261 | inactive: 1.62 | inactive: -0.191
COc1cc(/N=N/c2c(S(=O)(=O)[O-])cc3cc(S(=O)(=O)[O-])cc(NC(=O)c4cccc(Cl)c4Cl)c3c2O)c(OC)cc1/N=N/c1c(S(=O)(=O)[O-])cc2cc(S(=O)(=O)[O-])cc(NC(=O)c3ccc(Cl)cc3Cl)c2c1O | inactive: 1.14 | inactive: -0.897 | inactive: -0.0646
CC(C)(C)CN1CCCC12Cc1ccccc1CNC2=O (stereo unspecified) | inactive: 1.37 |  | inactive: -1.69
Nc1ccc(F)cc1NC(=O)c1ccc(CNC(=O)/C=C/c2cccnc2)cc1 | inactive: 2.34 |  | active: 25.2
Nc1ccc(F)cc1NC(=O)c1ccc(CNC(=O)/C=C/c2cccnc2)cc1 [Chidamide] |  | active: 16.1 | 
CN(C)CCCSc1ccccc1NC(=O)/C=C/c1ccccc1 [Cinanserin] | inactive: -1.7 |  | inactive: -0.889
CN(C)CCCSc1ccccc1NC(=O)/C=C/c1ccccc1 |  | inactive: -2.63 | 
COC1CCN(C(=O)c2cc(C=C3NNC(=O)c4ccccc43)ccc2F)CC1 | inactive: -1.41 | inactive: 1.6 | inactive: -1.35
C[C@]12CC[C@H](O)CC1=CC[C@@H]1[C@@H]2CC[C@]2(C)C(n3cnc4ccccc43)=CC[C@@H]12 [galeterone] | inactive: 3.66 | inactive: 0.802 | inactive: -0.519
Cc1ccc(C(=O)OCc2ccc(C(CN)C(=O)Nc3ccc4cnccc4c3)cc2)c(C)c1 (stereo unspecified) | inactive: -0.474 | inactive: 0.686 | inactive: 0.738

Exported with tabs: part of the list above.
SMILES	TEAD-luciferase reporter activity (compound concentration: 200 nM)	TEAD-luciferase reporter activity (compound concentration: 2 uM)	TEAD-luciferase reporter activity (compound concentration: 10 uM)
CN(C)[C@@H]1C(O)=C(C(N)=O)C(=O)[C@@]2(O)C(O)=C3C(=O)c4c(O)ccc(Cl)c4[C@@](C)(O)C3C[C@@H]12 (stereo partly specified) [Chlortetracycline HCl]	inactive: -0.0898	inactive: -0.0875	inactive: 2.28
C[C@@H](NCCCc1cccc(C(F)(F)F)c1)c1cccc2ccccc12 [cinacalcet hydrochloride]	inactive: -1.82	inactive: -0.602	inactive: -3.61
